Experimental data as given in patent publication US20250325528A1, “[…] ROLE OF mTORC1 INHIBITION OF NON-TUMOR CELLS” (THE BOARD OF REGENTS OF THE UNIVERSITY OF TEXAS SYSTEM, priority 2024, published 2025).
At least one compound was matched to its structure with a doubt left.

Experiments:
[1] = system: TGs (XP144, XP164 and XP490); experiment: Growth curves of subcutaneously implanted TGs, statements on all lines; type: in vivo, mice
[2] = system: primary cell lines derived from resistant TGs; experiment: Growth of primary cell lines derived from TGs in culture; type: cell-based; settings: cells from Ra Resistant TGs, 50 nM rapamycin
[3] = system: primary cells from XP144, XP164 and XP490 TGs; experiment: Co-culture assay, cell counting; type: cell-based; settings: 50 nM rapamycin, 3 days

With `CO[C@H]1C[C@@H]2CC[C@@H](C)[C@@](O)(O2)C(=O)C(=O)N2CCCC[C@H]2C(=O)O[C@H]([C@H](C)C[C@@H]2CC[C@@H](O)[C@H](OC)C2)CC(=O)[C@H](C)/C=C(\C)[C@@H](O)[C@@H](OC)C(=O)[C@H](C)C[C@H](C)/C=C/C=C/C=C/1C` [rapamycin] the “ability to suppress TG growth” value ([1]; NOD/SCID^mTOR-ST mice, 3 TG lines) was “significantly impaired across all 3 TG lines”, the TG growth ([1]; XP144, XP164, XP490 in NOD/SCID mice, 0.5 mg/kg every 48 hours) was “effectively suppressed TG growth” and the “resistance of TGs” value ([1]; all three TG lines, prolonged treatment) was “acquired resistance with prolonged treatment”. For the same compound, the “sensitivity of resistant tumors after transplantation” value ([1]; rapamycin-resistant tumors from NOD/SCID^mTOR-ST mice transplanted into wild-type mice) was “resistant tumors became sensitive to rapamycin”, the “growth of previously resistant TGs” value ([1]; resistant TGs passaged to a second cohort of mice) was “able to inhibit the growth of these previously resistant TGs” and the tumor growth inhibition ([1]; resistant hosts, two of the three TG lines tested) was “failed to inhibit tumor growth”. The “growth of primary cell lines in culture” value [2] was “sensitive to rapamycin in culture”, the “tumor cell inhibition in co-culture” value ([3]; mTOR-ST mutant fibroblasts) was “significantly dampened by the mutant fibroblasts” and the “tumor cell inhibition in co-culture” value ([3]; wild-type fibroblasts) was “did not affect tumor cell inhibition by rapamycin”.
